Experimental data published in patent US20130253011A1, “INSECTICIDAL COMPOUNDS” (SYNGENTA PARTICIPATIONS AG, priority 2010, published 2013).
Some entries share one result that the patent states for a list of compounds.

What was measured:
Format in all cases: in vivo
[1] = tested on: Spodoptera littoralis (Egyptian cotton leafworm); test: Spodoptera littoralis leaf disc spray test; conditions: 200 ppm sprayed on cotton leaf discs; 5 L1 larvae; mortality, feeding behaviour, growth regulation 3 DAT
[2] = tested on: Heliothis virescens (Tobacco budworm); test: Heliothis virescens egg test on artificial diet; conditions: 200 ppm (concentration in well 18 pm) by pipetting; eggs 0 to 24 h old on artificial diet; egg mortality, larval mortality, growth regulation after 4 days
[3] = tested on: Plutella xylostella (Diamond back moth); test: Plutella xylostella larval test on artificial diet; conditions: 200 ppm (concentration in well 18 ppm) on artificial diet; L2 larvae; larval mortality, growth regulation after 6 days
[4] = tested on: Diabrotica balteata (Corn root worm); test: Diabrotica balteata larval test on artificial diet; conditions: 200 ppm (concentration in well 18 ppm) on artificial diet; L2 larvae; larval mortality, growth regulation after 5 days
[5] = tested on: Thrips tabaci (Onion thrips); test: Thrips tabaci sunflower leaf disc spray test; conditions: 200 ppm sprayed on sunflower leaf discs; population of mixed ages; mortality after 7 days

Row | SMILES | control of Spodoptera littoralis [1] | control of Heliothis virescens [2] | control of Plutella xylostella [3] | control of Diabrotica balteata [4] | control of Thrips tabaci [5]
1 | Cc1ccccc1C(=O)Nc1cccc(-c2cn(-c3c(C(F)(F)F)c(C(F)(F)C(F)(F)F)nn3C)nn2)c1 [Compound A8] | at least 80% | at least 80% |  |  | 
2 | Cn1nc(C(F)(F)C(F)(F)F)c(C(F)(F)F)c1-n1cc(-c2cccc(NC(=O)c3ccccc3Cl)c2)nn1 [Compound A9] | at least 80% | at least 80% |  |  | 
3 | Cc1cc(F)ccc1C(=O)Nc1cccc(-c2cn(-c3c(C(F)(F)F)c(C(F)(F)C(F)(F)F)nn3C)nn2)c1 [Compound A13] | at least 80% | at least 80% | at least 80% |  | 
4 | Cn1nc(C(F)(F)C(F)(F)F)c(C(F)(F)F)c1-n1cc(-c2cccc(NC(=O)c3ccc([N+](=O)[O-])cc3Cl)c2)nn1 [Compound A15] | at least 80% | at least 80% | at least 80% |  | 
5 | Cn1nc(C(F)(F)C(F)(F)F)c(C(F)(F)F)c1-n1cc(-c2cccc(NC(=O)c3ccc(OC(F)(F)F)cc3)c2)nn1 [Compound A17] | at least 80% | at least 80% |  |  | 
6 | Cn1nc(C(F)(F)C(F)(F)F)c(C(F)(F)F)c1-n1cc(-c2cccc(NC(=O)c3ccccc3)c2)nn1 [Compound A22] | at least 80% | at least 80% | at least 80% |  | 
7 | Cn1nc(C(F)(F)C(F)(F)F)c(C(F)(F)F)c1-n1cc(-c2cccc(NC(=O)c3ccc(F)cc3F)c2)nn1 [Compound A28] | at least 80% |  | at least 80% |  | 
8 | Cn1nc(C(F)(F)C(F)(F)F)c(C(F)(F)F)c1-n1cc(-c2ccc(C#N)c(NC(=O)c3ccccc3F)c2)nn1 [Compound A30] | at least 80% | at least 80% |  | at least 80% | 
9 | Cn1nc(C(F)(F)C(F)(F)F)c(C(F)(F)F)c1-n1cc(-c2ccc(C#N)c(NC(=O)c3ccccc3Cl)c2)nn1 [Compound A32] | at least 80% | at least 80% | at least 80% | at least 80% | 
10 | Cc1ccc(C(=O)Nc2cc(-c3cn(-c4c(C(F)(F)F)c(C(F)(F)C(F)(F)F)nn4C)nn3)ccc2C#N)cc1 [Compound A35] | at least 80% |  | at least 80% | at least 80% | 
11 | Cn1nc(C(F)(F)C(F)(F)F)c(C(F)(F)F)c1-n1cc(-c2ccc(C#N)c(NC(=O)c3ccc([N+](=O)[O-])cc3Cl)c2)nn1 [Compound A38] | at least 80% | at least 80% | at least 80% | at least 80% | 
12 | Cn1nc(C(F)(F)C(F)(F)F)c(C(F)(F)F)c1-n1cc(-c2ccc(C#N)c(NC(=O)c3ccc(C(F)(F)F)cc3)c2)nn1 [Compound A42] |  | at least 80% | at least 80% | at least 80% | at least 80%
13 | Cn1nc(C(F)(F)C(F)(F)F)c(C(F)(F)F)c1-n1cc(-c2ccc(C#N)c(NC(=O)c3ccccc3C(F)(F)F)c2)nn1 [Compound A47] | at least 80% | at least 80% |  |  | 
14 | Cn1nc(C(F)(F)C(F)(F)F)c(C(F)(F)F)c1-n1cc(-c2ccc(C#N)c(NC(=O)c3ccc(F)cc3F)c2)nn1 [Compound A51] | at least 80% | at least 80% | at least 80% | at least 80% | 
15 | Cc1cc(F)ccc1C(=O)Nc1cc(-c2cn(-c3c(C(F)(F)F)c(C(F)(F)C(F)(F)F)nn3C)nn2)ccc1Cl [Compound A59] | at least 80% | at least 80% | at least 80% | at least 80% | 
16 | Cn1nc(C(F)(F)C(F)(F)F)c(C(F)(F)F)c1-n1cc(-c2ccc(C#N)c(NC(=O)c3cnc(Cl)s3)c2)nn1 [Compound A77] | at least 80% |  |  |  | 
17 | Cn1nc(C(F)(F)C(F)(F)F)c(C(F)(F)F)c1-n1cc(-c2ccc(C#N)c(NC(=O)CF)c2)nn1 [Compound A85] | at least 80% |  |  |  | 
18 | Cn1nc(C(F)(F)C(F)(F)F)c(C(F)(F)F)c1-n1cc(-c2ccc(C#N)c(NC(=O)C(Cl)(Cl)Cl)c2)nn1 [Compound A87] | at least 80% |  | at least 80% | at least 80% | 

Row | SMILES | control of Spodoptera littoralis [1] | control of Heliothis virescens [2] | control of Plutella xylostella [3] | control of Diabrotica balteata [4] | control of Thrips tabaci [5]
19 | Cn1nc(C(F)(F)C(F)(F)F)c(C(F)(F)F)c1-n1cc(-c2ccc(C#N)c(NC(=O)c3ccc4c(c3)nnn4C)c2)nn1 [Compound A91] | at least 80% |  | at least 80% |  | 
20 | C=CCCC(=O)Nc1cc(-c2cn(-c3c(C(F)(F)F)c(C(F)(F)C(F)(F)F)nn3C)nn2)ccc1C#N [Compound A93] | at least 80% |  | at least 80% | at least 80% | 
21 | Cn1nc(C(F)(F)C(F)(F)F)c(C(F)(F)F)c1-n1cc(-c2ccc(C#N)c(NC(=O)c3ccc(S(C)(=O)=O)cc3Cl)c2)nn1 [Compound A99] | at least 80% |  |  |  | 
22 | Cc1cc(C(=O)Nc2cc(-c3cn(-c4c(C(F)(F)F)c(C(F)(F)C(F)(F)F)nn4C)nn3)ccc2C#N)no1 [Compound A104] | at least 80% |  | at least 80% |  | 
23 | Cn1nc(C(F)(F)C(F)(F)F)c(C(F)(F)F)c1-n1cc(-c2ccc(C#N)c(NC(=O)C(C)(C)C)c2)nn1 [Compound A105] | at least 80% |  |  |  | 
24 | Cn1nc(C(F)(F)C(F)(F)F)c(C(F)(F)F)c1-n1cc(-c2ccc(C#N)c(NC(=O)c3ccc(F)cc3C(F)(F)F)c2)nn1 [Compound A106] | at least 80% |  | at least 80% | at least 80% | 
25 | Cn1nc(C(F)(F)C(F)(F)F)c(C(F)(F)F)c1-n1cc(-c2ccc(C#N)c(NC(=O)C3CCC3)c2)nn1 [Compound A111] | at least 80% |  | at least 80% |  | at least 80%
26 | Cn1nc(C(F)(F)C(F)(F)F)c(C(F)(F)F)c1-n1cc(-c2ccc(C#N)c(NC(=O)Cc3cccs3)c2)nn1 [Compound A120] | at least 80% |  |  |  | 
27 | COCC(=O)Nc1cc(-c2cn(-c3c(C(F)(F)F)c(C(F)(F)C(F)(F)F)nn3C)nn2)ccc1C#N [Compound A122] | at least 80% |  |  |  | 
28 | Cn1nc(C(F)(F)C(F)(F)F)c(C(F)(F)F)c1-n1cc(-c2cccc(NC(=O)c3ccc(C#N)cc3Cl)c2F)nn1 [Compound A131] | at least 80% | at least 80% | at least 80% | at least 80% | 
29 | Cn1nc(C(F)(F)C(F)(F)F)c(C(F)(F)F)c1-n1cc(-c2cccc(NC(=O)c3ccccc3)c2F)nn1 [Compound A133] | at least 80% | at least 80% | at least 80% | at least 80% | 
30 | COc1c(NC(=O)c2cccnc2)cccc1-c1cn(-c2c(C(F)(F)F)c(C(F)(F)C(F)(F)F)nn2C)nn1 [Compound A138] | at least 80% | at least 80% | at least 80% | at least 80% | 
31 | Cn1nc(C(F)(F)C(F)(F)F)c(C(F)(F)F)c1-n1cc(-c2cccc(NC(=O)c3cc(Cl)nc(Cl)c3)c2F)nn1 [Compound A168] |  | at least 80% | at least 80% | at least 80% | at least 80%
32 | Cn1nc(C(F)(F)C(F)(F)F)c(C(F)(F)F)c1-n1cc(-c2cccc(NC(=O)c3ccc(C(F)(F)F)cc3)c2F)nn1 [Compound A192] |  | at least 80% | at least 80% | at least 80% | 
33 | Cn1nc(C(F)(F)C(F)(F)F)c(C(F)(F)F)c1-n1cc(-c2cccc(NC(=O)c3ccccc3C(F)(F)F)c2F)nn1 [Compound A195] |  | at least 80% | at least 80% | at least 80% | 
34 | Cc1nnsc1C(=O)Nc1cccc(-c2cn(-c3c(C(F)(F)F)c(C(F)(F)C(F)(F)F)nn3C)nn2)c1F [Compound A197] |  | at least 80% | at least 80% | at least 80% | 
35 | Cn1nc(C(F)(F)C(F)(F)F)c(C(F)(F)F)c1-n1cc(-c2cccc(NC(=O)c3ccc(F)cc3F)c2F)nn1 [Compound A199] |  | at least 80% | at least 80% | at least 80% | 
36 | COc1c(-c2cn(-c3c(C(F)(F)F)c(C(F)(F)C(F)(F)F)nn3C)nn2)cccc1N(C)C(=O)c1ccccc1 [Compound B8] | at least 80% | at least 80% | at least 80% | at least 80% | 
